These are yes or no findings as the source states them, for the method shown. In cells and extracts the contact can be indirect. Some binding calls cover weakened binding; strength is not graded here.
Molecular target: FLAG-MSK1 (mitogen- and stress-activated kinase 1) (UniProt O75582)
Experiment: co-IP; HEK293T cells transfected with FLAG-MSK1 and HA-p53; lysates (20 mM Tris-Cl pH 7.5, 300 mM KCl, 0.2 mM EDTA, 0.1% NP-40, 20% glycerol) incubated with M2 agarose; immunoblot

- binding: binds
Substance: HA-p53 (from UniProt P04637 1-393)

Reference: PMC6180136
